Laboratory results as given in publication PMC7616792, “The structural mechanism of dimeric DONSON in replicative helicase activation” (Molecular cell, 2023).
Positions count from the first letter of the chain named. Read-outs that look alike come from different tables or passages of the source. These are yes or no findings as the source states them, for the method shown. For some of these results: In cells and extracts the contact can be indirect. Some entries that bind do so weakly or less than the wild type. For some of these results: Where a sequence is shown, tags or fusion partners need not be part of it. One block for each molecule: values may come before it.

By UniProt entry, the sequences of proteins in these tests, tags left out. Where a name states a change or a piece, a line headed by the entry shows the natural chain unless it says otherwise.
UniProt P12004: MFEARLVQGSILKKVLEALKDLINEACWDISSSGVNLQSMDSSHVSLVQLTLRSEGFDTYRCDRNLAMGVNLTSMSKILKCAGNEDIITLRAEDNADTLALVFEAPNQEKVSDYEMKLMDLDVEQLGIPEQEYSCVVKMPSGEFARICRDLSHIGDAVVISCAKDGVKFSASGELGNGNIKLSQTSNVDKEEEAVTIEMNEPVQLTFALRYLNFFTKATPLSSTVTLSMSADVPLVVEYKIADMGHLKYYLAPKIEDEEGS
UniProt Q14691: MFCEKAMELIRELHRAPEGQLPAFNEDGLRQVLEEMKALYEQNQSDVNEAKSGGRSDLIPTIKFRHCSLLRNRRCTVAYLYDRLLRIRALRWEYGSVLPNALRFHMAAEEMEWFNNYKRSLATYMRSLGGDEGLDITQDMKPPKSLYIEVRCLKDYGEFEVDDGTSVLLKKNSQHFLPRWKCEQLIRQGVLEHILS

Columns and labels:
[1] = target: T1, human DONSON Met446Thr, GFP-tagged (second copy FLAG-tagged) (human) (UniProt Q9NYP3); experiment: co-IP; 293FT cells transfected with GFP-tagged (and FLAG-tagged) DONSON, lysed with 0.5-1% NP40 and benzonase; GFP-DONSON captured on GFP-Trap agarose beads 5 h at 4°C, washed with 100-300 mM NaCl; blots for FLAG, GINS, MCM2, PCNA
T1 sequence: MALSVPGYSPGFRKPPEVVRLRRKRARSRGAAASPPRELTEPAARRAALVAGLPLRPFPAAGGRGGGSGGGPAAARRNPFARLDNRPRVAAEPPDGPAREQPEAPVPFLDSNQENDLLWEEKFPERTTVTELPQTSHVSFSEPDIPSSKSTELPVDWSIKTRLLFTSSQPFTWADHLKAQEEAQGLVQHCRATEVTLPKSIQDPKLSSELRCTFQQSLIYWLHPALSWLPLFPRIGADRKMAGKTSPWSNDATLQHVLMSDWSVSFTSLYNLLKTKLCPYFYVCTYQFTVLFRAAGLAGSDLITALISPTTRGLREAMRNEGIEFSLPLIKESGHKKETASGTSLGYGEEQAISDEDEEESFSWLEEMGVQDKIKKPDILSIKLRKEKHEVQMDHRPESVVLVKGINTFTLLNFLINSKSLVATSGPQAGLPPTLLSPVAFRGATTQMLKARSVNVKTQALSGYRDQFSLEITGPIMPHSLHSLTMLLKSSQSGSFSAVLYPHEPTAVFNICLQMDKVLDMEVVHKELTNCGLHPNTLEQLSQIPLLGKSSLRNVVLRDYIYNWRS

[2] = target: T2, human DONSON Trp228Leu, GFP-tagged (second copy FLAG-tagged) (human) (UniProt Q9NYP3); experiment: as above
T2 sequence: T1 sequence with W228L, T446M

[3] = target: T3, human DONSON WT, GFP-tagged (second copy FLAG-tagged) (human) (UniProt Q9NYP3); experiment: as above
T3 sequence: T1 sequence with T446M

[4] = target: T4, Sld5 (GINS subunit), endogenous in Xenopus laevis egg extract (Xenopus laevis (endogenous in egg extract)) (UniProt Q7ZT48); experiment: cryo-EM structure; dCMGDo (double CMG-DONSON, 24-mer) in the 3xFLAG-peptide eluate of the Cdc45-TEV-His10-FLAG5 immunoprecipitation from benzonase-digested chromatin; graphene oxide grids; no DNA in the complex; C2 symmetry
T4 sequence: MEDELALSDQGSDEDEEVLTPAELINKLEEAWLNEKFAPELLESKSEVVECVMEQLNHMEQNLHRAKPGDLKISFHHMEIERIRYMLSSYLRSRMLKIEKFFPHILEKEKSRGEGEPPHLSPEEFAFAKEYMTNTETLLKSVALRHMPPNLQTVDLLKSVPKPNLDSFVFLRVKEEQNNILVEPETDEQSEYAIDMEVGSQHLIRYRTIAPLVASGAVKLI

[5] = target: T5, Mcm3, endogenous in Xenopus laevis egg extract (Xenopus laevis (endogenous in egg extract)), P49739; experiment: as above; details: remark: other sources report otherwise
T5 chain: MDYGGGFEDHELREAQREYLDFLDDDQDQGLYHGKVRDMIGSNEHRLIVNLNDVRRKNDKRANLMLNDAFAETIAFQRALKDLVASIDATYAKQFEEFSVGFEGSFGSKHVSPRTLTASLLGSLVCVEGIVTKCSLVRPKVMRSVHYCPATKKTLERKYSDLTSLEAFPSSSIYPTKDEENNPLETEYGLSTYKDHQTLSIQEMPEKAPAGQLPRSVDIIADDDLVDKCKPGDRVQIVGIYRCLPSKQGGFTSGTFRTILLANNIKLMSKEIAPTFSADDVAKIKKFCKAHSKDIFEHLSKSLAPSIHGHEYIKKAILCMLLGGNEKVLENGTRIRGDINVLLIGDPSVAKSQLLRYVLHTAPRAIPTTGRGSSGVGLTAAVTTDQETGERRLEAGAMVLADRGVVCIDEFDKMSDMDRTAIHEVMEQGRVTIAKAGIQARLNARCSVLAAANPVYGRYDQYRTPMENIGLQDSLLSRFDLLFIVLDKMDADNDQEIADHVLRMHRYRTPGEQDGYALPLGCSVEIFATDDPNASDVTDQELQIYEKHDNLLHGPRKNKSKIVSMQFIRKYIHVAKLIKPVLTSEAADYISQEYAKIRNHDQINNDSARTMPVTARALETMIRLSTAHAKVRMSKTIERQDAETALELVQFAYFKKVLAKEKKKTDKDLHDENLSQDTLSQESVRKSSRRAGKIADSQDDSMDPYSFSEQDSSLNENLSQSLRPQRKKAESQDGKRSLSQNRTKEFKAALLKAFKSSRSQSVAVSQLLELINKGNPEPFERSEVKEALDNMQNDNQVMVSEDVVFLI

[6] = target: T6, Mcm3, endogenous in Xenopus laevis egg extract (Xenopus laevis (endogenous in egg extract)) (UniProt P49739); experiment: as above
T6 sequence: T5 chain

[7] = target: T3, human DONSON WT, GFP-tagged (second copy FLAG-tagged) (human); experiment: co-IP; 293FT cells transfected with GFP-tagged (and FLAG-tagged) DONSON, lysed with 0.5-1% NP40 and benzonase; GFP-DONSON captured on GFP-Trap agarose beads 5 h at 4°C, washed with 100-300 mM NaCl; blots for FLAG, GINS, MCM2, PCNA; remark: listed apart in the source

Molecule: PCNA (proliferating cell nuclear antigen), endogenous in 293FT cells (from UniProt P12004 1-261)
binding [1]: binds | binding [2]: binds | binding [3]: binds

Molecule: GINS complex, endogenous in 293FT cells (from UniProt Q14691 1-196; Q9Y248 1-185; Q9BRX5 1-216; Q9BRT9 1-223)
binding [1]: binds | binding [2]: binds | binding [3]: binds

B1: DONSON (Downstream neighbor of Son), endogenous in Xenopus laevis egg extract (protein, UniProt Q5U4U4 1-579)
chain: MAELLPGYSPSFKKPSEILRLSRRRSRSEASKTGLSPFSPGDVIKRVPGLRPFSPGPNKGAGVKRRNPFASLENTVCSPVKRRAETVAEYGAASLEPRALSAVRPSCLGQDSPEPPQFNSVEDVIWGDPLAADADPLVKTESPEKPAPACEIPKGSVTFPADWSLKTRLLFTSSHSFSWADHLKAQEEAQGLVMQCRATAVNLPHSIQEPKLSTDLRCAFQQSLVHWIHPSLPWVQLFPRIGVDRKMAGKNTPWSQDESLQQVLMSEWALSFTSLYNLLKAKLCPYFYVCTYQFTVLFRAAGLAGSDVITAVMSPTTRGLREAMKNEGITFSQPLVEDDTGKKQKKPEAASQGDINPEKENGTAEADEASDESDEDESFSWLEEMGVEDKIKKPDSISIKLRKEKNEVKLDHKPESVVLVKGTNTFTLLNFLINCKSIVAAAGLQAGLPPTLLSPVAFRGATMHALKARSVNVKTRVNSGYKDQFSLEITGPIMPHSLHSLTMLLQSAQRGSFSAGLYTHEPTAVFNTPIHSQAVKEISADLQNCGLHPCTVEQLTQVNELGKLSLRHLEMTDYRYTWK
binding [4]: binds

B2: DONSON (Downstream neighbor of Son), endogenous in Xenopus laevis egg extract, Q5U4U4 1-579 (protein)
chain: B1 chain
binding [5]: binds

Second part, the molecule after the results:

binding [6]: binds
B3: Psf3 (GINS subunit), endogenous in Xenopus laevis egg extract (protein, UniProt Q7ZT01 1-210)
chain: MWEPYMPVEPGLGREENFLSLEDLLMSQEKLPCCIESGFPRLGFLDKGGDSDSIPEGSKMELPLWLAKGLYDNKRRVLSVELPKIYREGWRTVFSADANVVDLHKMGPHYYGFGSQLLNFDSPENPEIAKTILQTFVGRFRRIMDSSQNAYNEDTSGLVARLDELERSLFRAGQRGLNAFQSWERGKAAQITASNLVQNYKKRKFNEADA

binding [7]: binds
B4: human DONSON WT, GFP-tagged (second copy FLAG-tagged) (protein, UniProt Q9NYP3 1-566)
chain: T1 sequence with T446M
